Results are given in words; binding and its absence hold for the method and conditions named. Binding can be weak; no strength is given.

Binding data for one molecule are collected here from article PMC4635213.

This assay concerns the target histone H2A from Brassica oleracea (Brassica oleracea). The experiment in a line: far-Western, overlay or dot blot; purified B. oleracea histones separated on 15% SDS-PAGE and transferred to PVDF; membrane incubated with AtFib2 (0.5 ug) in 20 mM Tris pH 7.6, 100 mM NaCl, 0.5 mM EDTA, 10% glycerol, 0.1% tween-20, 2% non-fat milk, 1 mM DTT at 25 C for 4 h; detected with anti-fibrillarin; H2A band verified by anti-H2A after stripping; both purified.

B1: Arabidopsis thaliana fibrillarin 2 (enzyme, UniProt Q94AH9 1-320)
chain: MRPPLTGSGGGFSGGRGRGGYSGGRGDGGFSGGRGGGGRGGGRGFSDRGGRGRGRGPPRGGARGGRGPAGRGGMKGGSKVIVEPHRHAGVFIAKGKEDALVTKNLVPGEAVYNEKRISVQNEDGTKTEYRVWNPFRSKLAAAILGGVDNIWIKPGAKVLYLGAASGTTVSHVSDLVGPEGCVYAVEFSHRSGRDLVNMAKKRTNVIPIIEDARHPAKYRMLVGMVDVIFSDVAQPDQARILALNASYFLKSGGHFVISIKANCIDSTVPAEAVFQTEVKKLQQEQFKPAEQVTLEPFERDHACVVGGYRMPKKPKAATAA
Consider B1, for which the binding entry was “binds”.
